PubChem BioAssay AID1224828, NIAID – 2016
Here is one part, drawn at random, of about 17,000 reagents tested. Of all reagents, 762 (4.5%) were called active. 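Active calls include both raised and lowered p65 entry, mostly lowered; wells with fewer than 50 cells lack a z-score.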 Raw values are not corrected between plates.

Assay: 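Find genes required for NF-kappaB p65 moving into the nucleus after LPS in mouse macrophages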 (primary screen)
Cells: mouse RAW264.7 G9 macrophage reporter cells (GFP-p65, Tnf promoter-mCherry)
Reagent: siRNA pool against mouse genes, 100 nM
Time to read-out: 2 days siRNA transfection, then 40 min LPS before fixation
Challenge: LPS (Salmonella minnesota R595) at 10 ng/ml
Measurement: 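Imaged p65 nuclear translocation ratio, normalised to the plate median, converted to robust z-scores and averaged across two replicates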
Direction: p65 translocation robust z-score: higher = more nuclear NF-kappaB p65 after LPS than the plate median; nuclear/cytoplasmic p65 ratio: higher = more nuclear NF-kappaB p65
Active means: 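Active if robust z is above 3.3 (negative regulators) or below -1.56, the Tlr4 control median (positive regulators); activity score 50 or more; control wells not called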
Calls: active = hit (p65 shift raised or lowered); inactive = no clear change

target,p65 translocation robust z-score,"nuclear/cytoplasmic p65 ratio, rep 1","nuclear/cytoplasmic p65 ratio, rep 2",low cell count flag,outcome
Vipr2 (vasoactive intestinal peptide receptor 2),1.7,1.98,1.61,enough cells to score,inactive
"Arpc1b (actin related protein 2/3 complex, subunit 1B)",0.75,1.81,1.66,enough cells to score,inactive
Sirt6 (sirtuin 6),1.3,1.66,1.33,enough cells to score,inactive
"Rbbp9 (retinoblastoma binding protein 9, serine hydrolase)",0.42,1.65,1.51,enough cells to score,inactive
Ccdc33 (coiled-coil domain containing 33),1.19,1.44,1.41,enough cells to score,inactive
Crtac1 (cartilage acidic protein 1),-1.25,1.33,1.64,enough cells to score,inactive
Vcpip1,0.86,1.45,1.6,enough cells to score,inactive
"Ap1b1 (adaptor protein complex AP-1, beta 1 subunit)",-0.53,1.48,1.65,enough cells to score,inactive
C4a (complement C4A),1.32,1.65,1.75,enough cells to score,inactive
Nprl3 (nitrogen permease regulator-like 3),0.57,1.79,1.64,enough cells to score,inactive
Med17 (mediator complex subunit 17),-1.45,1.41,1.08,enough cells to score,inactive
"Kcnv2 (potassium channel, subfamily V, member 2)",1.01,1.61,1.51,enough cells to score,inactive
C530047H08Rik (RIKEN cDNA C530047H08 gene),-0.56,1.4,1.4,enough cells to score,inactive
Piezo2 (piezo-type mechanosensitive ion channel component 2),0.71,1.5,1.67,enough cells to score,inactive
Trp53bp1 (transformation related protein 53 binding protein 1),0.51,1.56,1.6,enough cells to score,inactive
"Psmf1 (proteasome (prosome, macropain) inhibitor subunit 1)",,1.43,1.22,fewer than 50 cells per well; well left out of scoring,inactive
Klhl22 (kelch-like 22),-1.07,1.39,1.3,enough cells to score,inactive
Ccl4 (C-C motif chemokine ligand 4),,1.71,1.22,fewer than 50 cells per well; well left out of scoring,inactive
Sugp2 (SURP and G patch domain containing 2),0.62,1.39,1.41,enough cells to score,inactive
Ccdc71 (coiled-coil domain containing 71),-0.84,1.37,1.26,enough cells to score,inactive
Masp1 (MBL associated serine protease 1),1.52,1.95,1.77,enough cells to score,inactive
1700010H22Rik (RIKEN cDNA 1700010H22 gene),,1.54,1.44,fewer than 50 cells per well; well left out of scoring,inactive
Fah (fumarylacetoacetate hydrolase),1.21,1.56,1.58,enough cells to score,inactive
Amotl2 (angiomotin-like 2),-0.74,1.46,1.61,enough cells to score,inactive
Slc43a3,,1.57,1.36,fewer than 50 cells per well; well left out of scoring,inactive
Pdcd10 (programmed cell death 10),0.23,1.52,1.41,enough cells to score,inactive
Rad50 (RAD50 double strand break repair protein),0.34,1.61,1.53,enough cells to score,inactive
B3galt4,0.41,1.59,1.64,enough cells to score,inactive
"Card6 (caspase recruitment domain family, member 6)",0.11,1.62,1.64,enough cells to score,inactive
Ttc19 (tetratricopeptide repeat domain 19),0.08,1.64,1.61,enough cells to score,inactive
"Syncrip (synaptotagmin binding, cytoplasmic RNA interacting protein)",0.76,1.8,1.53,enough cells to score,inactive
Gabra1 (gamma-aminobutyric acid type A receptor subunit alpha 1),-0.45,1.32,1.37,enough cells to score,inactive
Ebf2 (early B cell factor 2),,1.4,1.26,fewer than 50 cells per well; well left out of scoring,inactive
"Sult1b1 (sulfotransferase family 1B, member 1)",0.26,1.51,1.67,enough cells to score,inactive
"Pold1 (polymerase (DNA directed), delta 1, catalytic subunit)",-0.85,1.7,1.3,enough cells to score,inactive
Atpsckmt (ATP synthase C subunit lysine N-methyltransferase),,1.3,1.42,fewer than 50 cells per well; well left out of scoring,inactive
Ly6e (lymphocyte antigen 6 family member E),-1.21,1.53,1.41,enough cells to score,inactive
"Ttf1 (transcription termination factor, RNA polymerase I)",-0.35,1.5,1.42,enough cells to score,inactive
"Nras (Nras proto-oncogene, GTPase)",0.67,1.62,1.42,enough cells to score,inactive
"Hras (Hras proto-oncogene, GTPase)",-2.1,1.3,1.27,enough cells to score,active
Dnm2 (dynamin 2),-0.29,1.42,1.09,enough cells to score,inactive
Taok1 (TAO kinase 1),,1.18,1.14,fewer than 50 cells per well; well left out of scoring,inactive
Ywhab,-0.51,1.46,1.41,enough cells to score,inactive
B530045E10Rik (RIKEN cDNA B530045E10 gene),0.81,1.76,1.91,enough cells to score,inactive
Marco (macrophage receptor with collagenous structure),-0.41,1.43,1.25,enough cells to score,inactive
Stat1 (signal transducer and activator of transcription 1),-0.85,1.46,1.4,enough cells to score,inactive
Klf12 (Kruppel-like transcription factor 12),0.56,1.5,1.5,enough cells to score,inactive
Rgs10 (regulator of G-protein signalling 10),1.52,1.67,1.35,enough cells to score,inactive
"Tecrl (trans-2,3-enoyl-CoA reductase-like)",1.26,1.6,1.37,enough cells to score,inactive
Mcoln2 (mucolipin 2),-2.31,1.35,1.21,enough cells to score,active
Camk1d (calcium/calmodulin-dependent protein kinase ID),0.66,1.89,1.4,enough cells to score,inactive
Gem (GTP binding protein overexpressed in skeletal muscle),1.57,1.62,1.59,enough cells to score,inactive
Myot (myotilin),1.01,1.59,1.7,enough cells to score,inactive
"Supt5 (suppressor of Ty 5, DSIF elongation factor subunit)",-0.18,1.5,1.45,enough cells to score,inactive
Or2b28 (olfactory receptor family 2 subfamily B member 28),-0.28,1.56,1.39,enough cells to score,inactive
Usp10 (ubiquitin specific peptidase 10),-0.23,1.54,1.42,enough cells to score,inactive
Or2a54 (olfactory receptor family 2 subfamily A member 54),1.05,1.58,1.21,enough cells to score,inactive
Eef1akmt1 (EEF1A alpha lysine methyltransferase 1),-0.68,1.33,1.35,enough cells to score,inactive
Il6st (interleukin 6 signal transducer),-0.61,1.38,1.31,enough cells to score,inactive
